Results on four substances are retold here after PMC9546906.

Protein sequences, listed by entry. Tags and fused reporters are not part of them. Lines headed by an entry give the natural chain unless they say otherwise; changes in a name come on top. Chains listed by the source or under a name are the forms on record and can include a tag or linker.
UniProt P63330: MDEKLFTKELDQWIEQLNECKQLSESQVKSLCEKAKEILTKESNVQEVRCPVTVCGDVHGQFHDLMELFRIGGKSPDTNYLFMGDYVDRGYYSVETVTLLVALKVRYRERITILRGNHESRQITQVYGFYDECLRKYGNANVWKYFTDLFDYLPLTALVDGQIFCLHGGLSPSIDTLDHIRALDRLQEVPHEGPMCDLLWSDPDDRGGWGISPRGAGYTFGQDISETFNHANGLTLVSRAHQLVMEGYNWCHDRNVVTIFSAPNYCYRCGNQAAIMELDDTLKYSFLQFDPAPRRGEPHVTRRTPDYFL
UniProt Q9EQU5: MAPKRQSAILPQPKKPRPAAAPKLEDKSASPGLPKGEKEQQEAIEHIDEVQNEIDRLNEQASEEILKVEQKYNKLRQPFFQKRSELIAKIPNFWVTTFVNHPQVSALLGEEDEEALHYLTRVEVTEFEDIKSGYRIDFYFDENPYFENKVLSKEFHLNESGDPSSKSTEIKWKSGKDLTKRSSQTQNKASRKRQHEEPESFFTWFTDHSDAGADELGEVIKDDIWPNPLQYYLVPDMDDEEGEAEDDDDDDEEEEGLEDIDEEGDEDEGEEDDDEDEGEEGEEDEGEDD
HA-tagged Set isoform 2 (Q9EQU5-2, form named): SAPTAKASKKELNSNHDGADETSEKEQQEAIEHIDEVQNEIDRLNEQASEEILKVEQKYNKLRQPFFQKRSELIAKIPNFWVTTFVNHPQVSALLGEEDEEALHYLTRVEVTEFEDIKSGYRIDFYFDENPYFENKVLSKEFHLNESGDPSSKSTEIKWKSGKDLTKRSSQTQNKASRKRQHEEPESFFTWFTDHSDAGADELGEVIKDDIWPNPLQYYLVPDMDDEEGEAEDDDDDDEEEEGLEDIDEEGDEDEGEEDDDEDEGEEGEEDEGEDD
UniProt P97820: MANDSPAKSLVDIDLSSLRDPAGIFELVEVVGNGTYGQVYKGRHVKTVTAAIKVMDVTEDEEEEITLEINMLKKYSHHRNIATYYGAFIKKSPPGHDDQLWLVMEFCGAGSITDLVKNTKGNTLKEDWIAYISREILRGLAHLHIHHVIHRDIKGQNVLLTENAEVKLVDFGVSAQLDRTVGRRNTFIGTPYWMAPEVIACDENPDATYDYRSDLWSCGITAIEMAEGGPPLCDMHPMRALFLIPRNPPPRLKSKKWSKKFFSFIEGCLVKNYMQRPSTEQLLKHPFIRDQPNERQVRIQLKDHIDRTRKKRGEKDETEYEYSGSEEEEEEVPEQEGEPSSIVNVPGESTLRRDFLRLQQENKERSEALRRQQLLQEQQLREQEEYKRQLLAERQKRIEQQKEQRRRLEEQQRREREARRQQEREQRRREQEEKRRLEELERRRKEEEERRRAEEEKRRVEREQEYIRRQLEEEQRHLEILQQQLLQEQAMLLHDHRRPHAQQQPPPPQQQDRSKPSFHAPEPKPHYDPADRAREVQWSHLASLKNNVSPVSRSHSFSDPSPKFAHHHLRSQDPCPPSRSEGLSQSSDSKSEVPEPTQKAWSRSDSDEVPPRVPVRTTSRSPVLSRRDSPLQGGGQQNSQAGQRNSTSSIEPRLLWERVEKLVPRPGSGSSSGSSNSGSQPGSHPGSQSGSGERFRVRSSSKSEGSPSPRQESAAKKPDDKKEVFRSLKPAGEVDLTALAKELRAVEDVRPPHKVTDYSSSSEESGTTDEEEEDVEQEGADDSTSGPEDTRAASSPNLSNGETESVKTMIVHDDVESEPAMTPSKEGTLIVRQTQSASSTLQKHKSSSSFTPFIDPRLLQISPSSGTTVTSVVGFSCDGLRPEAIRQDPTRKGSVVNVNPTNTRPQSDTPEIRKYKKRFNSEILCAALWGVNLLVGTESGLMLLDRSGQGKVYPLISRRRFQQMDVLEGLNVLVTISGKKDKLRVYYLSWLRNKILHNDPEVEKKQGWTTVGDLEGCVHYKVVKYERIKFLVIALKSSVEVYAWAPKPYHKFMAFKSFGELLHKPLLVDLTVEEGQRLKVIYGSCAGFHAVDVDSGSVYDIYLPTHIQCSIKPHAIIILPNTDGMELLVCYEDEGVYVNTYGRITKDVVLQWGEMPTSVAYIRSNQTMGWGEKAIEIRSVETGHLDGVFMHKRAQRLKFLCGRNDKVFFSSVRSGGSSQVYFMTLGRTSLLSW

Results are given in words; binding and its absence hold for the method and conditions named. In cells and extracts the contact can be indirect. Binding can be weak; no strength is given.

The target of this assay is protein phosphatase 2A (PP2A) (mouse (endogenous in mouse aortic VSMCs)) (UniProt P63330). The assay is described as follows: co-IP; extracts of control or RhoA cKO VSMCs stimulated with AngII for 24 h (also with scramble or Set siRNA, or transfected with HA-Set1 and HA-Set2), immunoprecipitated with anti-PP2A antibody or control IgG, protein G Sepharose, washed with RIPA buffer, western blot.
Regarding “HA-tagged Set isoform 1 (from UniProt Q9EQU5 2-289)”, the binding result is “binds”. For “HA-tagged Set isoform 2 (from UniProt Q9EQU5-2 2-277)”, the binding entry is “binds”. Under “Set (endogenous) (from UniProt Q9EQU5 1-289)” stands “binds”; under “mitogen-activated protein kinase kinase kinase kinase 4 (MAP4K4) (from UniProt P97820 1-1233) (enzyme)”, “binds”.
